# Earlier results as cited in patent US8309570B2, “Treatment of central neuropathic pain” (Analgesic Neuropharmaceuticals, LLC, priority 2001, dated 2012).
# At least one structure is not confirmed: it was looked up by name or label, or the drawing left a doubt.
# System: SCI pain
# Details: chronic oral agents; cited from earlier work
smiles,measurement,value
CCCC(CCC)C(=O)O [valproate],results of randomized controlled trials in SCI pain,negative
